About 3,700 (1.2%) of roughly 300,000 compounds were called active. Inconclusive means that the source gave no clear call. Such entries were picked first, then a sample of the others. Calls follow the shape of the full dose curve; tested in HEK293 cells. Potencies of inconclusive entries are doubtful fits and often do not repeat.
Assay: qHTS for Inhibitors of binding or entry into cells for Lassa Virus; also: nearly all actives have a fitted effect of over 50% in size
Conditions: Lassa virus pseudotype entry inhibition, cell reporter; series mostly up to 37.9 µM
Potency is read from the fitted curve at half-maximal effect.

Compound	Potency
c1cncc(-c2nc3ccccc3[nH]2)c1	inactive
Nc1c2c(nc3ccccc13)CCCC2=O	inconclusive: 6.31 µM [inhibitor, single point]
COc1ccc(S(=O)(=O)N(CC(=O)Nc2ccc(S(=O)(=O)N3CCOCC3)cc2)Cc2ccc(F)cc2)cc1	inconclusive: 12.6 µM [inhibitor, partial curve]
CCCC(C(=O)NCc1ccco1)N(C(=O)CNS(=O)(=O)c1ccc(Cl)cc1)C1CCCC1 (configuration not stated)	inconclusive: 17.8 µM [inhibitor, partial curve, poor fit]
CCOc1ccc(N2Cc3ncccc3C2=O)cc1	inconclusive: 20.6 µM [inhibitor, single point]
CC1(O)c2ccccc2C(=O)N1CCc1ccccc1F (configuration not stated)	inconclusive: 1 µM [activator, full curve]
CCCc1cnc2c(c1SCC(=O)Nc1ccc([N+](=O)[O-])cc1)c(=O)n(C)c(=O)n2C	inconclusive: 4.47 µM [inhibitor, single point]
CNC(=O)/C(C#N)=C/c1ccc(-c2ccccc2[N+](=O)[O-])o1	inactive
COc1ccccc1C(=O)Nc1cc(Cl)ccc1O	inactive
COc1ccc(NC(=O)CCS(=O)(=O)c2cc3c(cc2C)NC(=O)CO3)cc1Cl	inconclusive: 14.1 µM [inhibitor, single point]
O=C(Oc1ccc(Cl)cc1)N1CCCCC1	inconclusive: 0.92 µM [activator, full curve, poor fit]
COc1ccc(NC(C)=O)cc1NC(=O)c1cccc(C(F)(F)F)c1	inactive
CCC1CN(C(=O)N2CCC(C(=O)NCCCc3ccccc3)CC2)c2cc(C)ccc2O1 (configuration not stated)	inconclusive: 35.5 µM [inhibitor, single point]
COc1ccc(OCC(=O)N/N=C(/C)Cc2ccccc2)cc1	inconclusive: 29.1 µM [inhibitor, single point]
COc1ccc(NS(=O)(=O)c2cc(-c3onc(C)c3C)ccc2C)c(OC)c1	inconclusive: 0.891 µM [activator, full curve, poor fit]
COc1cc(C(=O)Oc2cc(N)n(S(=O)(=O)c3ccc(F)cc3)n2)cc(OC)c1OC	inconclusive: 6.31 µM [inhibitor, single point]
O=C(CSc1nc(C2CCCCC2)nc2ccccc12)N1CCCC1	inconclusive: 14.1 µM [inhibitor, partial curve, poor fit]
O=C(Oc1cccnc1)c1ccccc1[N+](=O)[O-]	inactive
C=CCn1c(Cc2cccs2)nnc1SCC(=O)Nc1ccc(OC)cc1	inconclusive: 1.3 µM [inhibitor, single point]
O=C(COc1ccc(F)cc1)Nc1ccc(OCc2cc(=O)n3ccsc3n2)cc1	inactive
O=C(CNC(c1ccccc1)c1ccccc1)Nc1cc([N+](=O)[O-])ccc1Cl	inconclusive: 18.4 µM [inhibitor, single point]
CN1C2CCC1/C(=C/c1ccccn1)C(=O)/C2=C\c1ccccn1	active: 2.31 µM
COc1ccc(C(=O)NCc2nnc(SCC(=O)N3CCOCC3)o2)cc1OC	inconclusive: 18.3 µM [activator, single point]

Arranged by number of heavy atoms (smallest number first): part of the list above.
Compound	Potency
O=C(Oc1ccc(Cl)cc1)N1CCCCC1	inconclusive: 0.92 µM [activator, full curve, poor fit]
CNC(=O)/C(C#N)=C/c1ccc(-c2ccccc2[N+](=O)[O-])o1	inactive
O=C(COc1ccc(F)cc1)Nc1ccc(OCc2cc(=O)n3ccsc3n2)cc1	inactive

(further entries)

Compound	Potency
O=[N+]([O-])c1ccc(O)c(-c2nc(-c3ccccc3)c(-c3cccs3)[nH]2)c1	inconclusive: 20.6 µM [inhibitor, single point]
CCOC(=O)N1CCN(C(=O)COC(=O)c2ccc([N+](=O)[O-])cc2Cl)CC1	inconclusive: 15.8 µM [activator, partial curve, poor fit]
Cc1cccc(NC(=O)c2cccc(N3CCCS3(=O)=O)c2)c1	inconclusive: 35.5 µM [activator, partial curve, poor fit]
CC(NC(=O)c1ccccc1NC(=O)CN1CCN(c2ccccc2O)CC1)c1ccccc1 (configuration not stated)	inconclusive: 20 µM [inhibitor, single point]
Cc1cc(O)c(C=O)c2c1C(=O)Oc1c(CO)c(O)c3c(c1O2)C(O)OC3=O (configuration not stated)	inconclusive: 1.77 µM [inhibitor, partial curve, poor fit]
OC1CCN(c2ncnc3c2nnn3Cc2c(F)cccc2Cl)CC1	inconclusive: 1.41 µM [inhibitor, partial curve, poor fit]
CN(Cc1ccccc1)C(=O)CSc1c2c(nc3ccc(Cl)cc13)CCCC2	inconclusive: 28.2 µM [inhibitor, single point]
O=C(/C=C/NCc1cccnc1)c1ccc(-c2ccccc2)cc1	inconclusive: 22.4 µM [inhibitor, single point]
COc1ccc(/C=C/C(=O)c2ccc(O)cc2)cc1COc1ccc(F)cc1	inconclusive: 18.3 µM [inhibitor, single point]
CC1C(=O)N(Cc2cn(CCC3OCCO3)nn2)CCS(=O)(=O)N1Cc1ccc(-c2ccc(Cl)cc2)cc1 (configuration not stated)	inconclusive: 35.3 µM [inhibitor, single point]
O=C(COc1ccc(Cl)cc1Cl)Nc1ccccc1F	active: 7.08 µM
COc1ccccc1/C=C/C=N/n1c(-c2ccc(C)cc2)n[nH]c1=S	active: 3.66 µM
Cc1ccc(-n2cc(CNCCCn3cccn3)c(-c3cccc(C)c3)n2)cc1	inconclusive: 35.5 µM [inhibitor, single point]
COc1ccc(Cl)cc1NC(=O)CC(C)=O	inconclusive: 17.8 µM [inhibitor, partial curve, poor fit]
COC(=O)c1ccc2c(c1)sc(=NC(=O)c1ccc(S(=O)(=O)N3CCCCC3)cc1)n2C	inconclusive: 7.94 µM [activator, partial curve, poor fit]
CC(C)Cc1nnc(NC(=O)c2cc3c(s2)CCC3)s1	inconclusive: 1.03 µM [activator, full curve, poor fit]
Cc1cc(C(=O)CN2C(=O)c3ccccc3S2(=O)=O)c(C)n1C(C)C	active: 2 µM
COc1ccc(/C=C2\SC(=N)N(c3ccc(F)cc3)C2=O)cc1OC	inconclusive: 35.5 µM [inhibitor, single point]
COc1ccc(C2c3c(-c4ccccc4)n[nH]c3C(=O)N2c2ccc(C(=O)O)cc2)c(OC)c1 (configuration not stated)	inconclusive: 10 µM [activator, partial curve, poor fit]
CCOC(=O)Cn1c(=NC(=O)c2cccs2)sc2cc(C(=O)OC)ccc21	inconclusive: 6.51 µM [activator, partial curve]
N#Cc1ccc(OCC(O)CN2CCN(C(c3ccccc3)c3ccccc3)CC2)cc1 (configuration not stated)	inactive
COc1ccc(-n2nc(C(=O)NCCc3ccc(Cl)cc3)c3c4ccccc4n(C)c3c2=O)cc1	inactive
O=C1OC(c2ccccc2)=N/C1=C\C=C\c1ccccc1[N+](=O)[O-]	inactive

Compound	Potency
CN(C)P(=O)(C(Cl)=C(N1CCCCC1)N1CCCCC1)N(C)C	inconclusive: 6.51 µM [inhibitor, single point]
CC(C)(C)C1CCC(OCC(O)CN2CCN(c3ccccc3)CC2)CC1 (configuration not stated)	inconclusive: 7.94 µM [inhibitor, partial curve, poor fit]
CCOc1ccc2c(c1)c(=O)c(S(=O)(=O)c1ccc(C)cc1)cn2Cc1ccccc1Cl	inactive
O=C(CCS(=O)(=O)c1ccccc1)Nc1nnc(-c2ccco2)o1	inactive
COC(=O)C[N+](C)(C)CC#Cc1ccccc1	active: 5.17 µM
CC(=O)Nc1nonc1-c1nnc(SCC(=O)Nc2ccc(C)c(Cl)c2)n1C	inconclusive: 7.08 µM [inhibitor, full curve, poor fit]
CCc1ccc(CN2CCN(S(=O)(=O)Cc3ccccc3)CC2)cc1	inconclusive: 0.058 µM [inhibitor, full curve, poor fit]
O=C(CCN=C1NS(=O)(=O)c2ccccc21)OCc1c(F)c(F)c(F)c(F)c1F	inactive
COc1cccc(C(=O)/C=C/Nc2ccc(S(=O)(=O)Nc3ccc(C(C)=O)cc3)cc2)c1	inconclusive: 17.8 µM [inhibitor, single point]
CCCOc1ccc(C2c3c(oc4ccc(F)cc4c3=O)C(=O)N2CCc2ccc(OC)cc2)cc1 (configuration not stated)	inconclusive: 6.31 µM [activator, single point]
COc1cc(/C=C/C(=O)c2ccc(C)cc2)ccc1OCC#N	active: 10 µM
O=C(CSc1nncc2ccccc12)N1CCCCC1	inactive
COc1cc2c(cc1OC)C(c1ccccc1)N(C(=O)c1cccc(S(C)(=O)=O)c1)CC2 (configuration not stated)	inconclusive: 7.94 µM [inhibitor, partial curve, poor fit]
CCCCOc1ccc(C(=O)NCC(=O)NCC(=O)OCC)cc1	inactive
CCN1CCN(c2ncnc3c2cnn3-c2cc(Cl)ccc2C)CC1	inactive
COc1cc(S(=O)(=O)N(Cc2ccccc2)CC2CCCO2)ccc1-n1cnnn1 (configuration not stated)	inconclusive: 10 µM [inhibitor, partial curve, poor fit]
CC(C)c1ccc(-c2noc(C3CCCN(C(=O)c4ccc(F)cc4F)C3)n2)cc1 (configuration not stated)	inconclusive: 29.1 µM [inhibitor, single point]
CC1(C)C(=O)NCCN1C(=O)c1ccc2nc(Cc3ccccc3F)oc2c1	inconclusive: 35.5 µM [inhibitor, single point]
CC(C)CCNC(=O)c1ccc2c(c1)ncn2C1CCCC1	inconclusive: 10 µM [activator, partial curve, poor fit]
CC(C)COC(=O)C1C(=O)CC(C)(O)C(C(=O)OCC(C)C)C1c1cccnc1 (configuration not stated)	inactive
Cc1ccc(N=C2NC(=O)/C(=C\c3ccco3)S2)cc1	inconclusive: 29.1 µM [inhibitor, single point]

For convenience, some entries already given:
Compound	Potency
O=C(COc1ccc(Cl)cc1Cl)Nc1ccccc1F	active: 7.08 µM
COc1ccccc1/C=C/C=N/n1c(-c2ccc(C)cc2)n[nH]c1=S	active: 3.66 µM

From PubChem BioAssay AID540256 (National Center for Advancing Translational Sciences (NCATS), 2011)
